Experimental data: paper PMC7819943, “Rice protein-binding microarrays: a tool to detect cis-acting elements near promoter regions in rice”
The other results are listed elsewhere or left out.

Protein sequences, listed by entry. Tags and fused reporters are not part of them.
UniProt Q0JBA9, entry or part of it: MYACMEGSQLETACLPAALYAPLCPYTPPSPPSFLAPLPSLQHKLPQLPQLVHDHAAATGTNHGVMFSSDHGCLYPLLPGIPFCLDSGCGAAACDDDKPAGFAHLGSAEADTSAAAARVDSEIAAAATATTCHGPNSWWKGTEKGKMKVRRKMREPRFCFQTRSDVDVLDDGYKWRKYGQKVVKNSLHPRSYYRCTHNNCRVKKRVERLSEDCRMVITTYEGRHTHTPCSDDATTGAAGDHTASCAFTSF

These sequences were tested against OsWRKY34 (Oryza sativa, UniProt Q0JBA9 1-250) (assay: protein-binding microarray (RPBM); PBS, 2% BSA, 51.3 ng/ul salmon testes DNA, 50 uM zinc acetate, 200 nM TF, 25 C, 1 h; high values mean tight binding). Details: protein: recombinant; tags: N-terminal polyhistidine and DsRed monomer fusion (pET32a); label: CyDye5-dUTP incorporated in the synthesized complementary strand; 3' TTTTT single-stranded linker to array surface; dsDNA, one strand shown.
Method in brief: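 Transcription factors, each fused N-terminally to a polyhistidine tag and DsRed, were expressed in E. coli BL21-CodonPlus and purified on Ni–NTA. A custom Agilent array was made double-stranded by primer extension with Cy5-dUTP and blocked with 2% BSA. It was incubated with 200 nM protein in PBS, 2% BSA, salmon testes DNA and 50 µM zinc acetate at 25 °C for 1 h, then washed. The binding signal is per-feature fluorescence intensity (arbitrary units) read on an Axon 4000B scanner.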
“CCGCATTTACCTCTCACATGTGTCTCGCCACTCGGTCTGACGGAGTCACCTAGTGCAG” was tested, and the binding signal was 12000 fluorescence intensity (a.u.).
“CCTTCTCGCCGCCGGCTTCTTCTTCTTCTTCCTTGTGTAGCGGAGTCACCTAGTGCAG” was tested, and the binding signal was 10000 fluorescence intensity (a.u.).
“TCTCCCGCCGCCCGCCGGCCGCGCGCCTCCTCTCCCGCCCCGGAGTCACCTAGTGCAG” was tested, and the binding signal was 8270 fluorescence intensity (a.u.).
With “ACTTTCGATGTACGCTCTGATTGATATTTCTCCAATATCTCGGAGTCACCTAGTGCAG” the binding signal was 8290 fluorescence intensity (a.u.).
In the case of “TGGAGGAATTACCGGTCGTGTTTATATTTTCAAACTTTGACGGAGTCACCTAGTGCAG”, the binding signal is reported as 10700 fluorescence intensity (a.u.).
For “AACCTACCCACGTGTTGGCAAAAGCTTTCTGCATTGTTATCGGAGTCACCTAGTGCAG”, the binding signal was 10500 fluorescence intensity (a.u.).
With “GGTACTGCGGTTTTCATTTCTCTTAAAGAATTTTCTGGTTCGGAGTCACCTAGTGCAG” the binding signal was 8120 fluorescence intensity (a.u.).
“CCACAAACTCTCTGCCACCGCTGTCTTCTTTCCGTCGACGCGGAGTCACCTAGTGCAG” was tested, and the binding signal was 11000 fluorescence intensity (a.u.).
In the case of “TCGGCATGATAGCATTGAGCAGCTTCTACTTCTGGGTCGGCGGAGTCACCTAGTGCAG”, the binding signal is reported as 8040 fluorescence intensity (a.u.).
With “CACCCAGCCGCGCCAGCCCACCTATTCGTTCGGCTTCTCCCGGAGTCACCTAGTGCAG” the binding signal was 13200 fluorescence intensity (a.u.).
With “GTAATTAAGTACGTATAGACTTTTCCATGTTTAGTTGTCGCGGAGTCACCTAGTGCAG” the binding signal was 9080 fluorescence intensity (a.u.).
“GCGCCGCCGCCGCCGCCCACAGCGCTTTGCTGCCGCCGTCCGGAGTCACCTAGTGCAG” was tested, and the binding signal was 8720 fluorescence intensity (a.u.).
For “CATCTTCAACTTTTGTCTACTCTTTCTCTCTTTAATCCTTCGGAGTCACCTAGTGCAG”, the binding signal was 11800 fluorescence intensity (a.u.).
For “TCTGGCGAGTAGAGCAGGCGAGGGGAGGGGAGGGGATCCGCGGAGTCACCTAGTGCAG”, the binding signal was 10500 fluorescence intensity (a.u.).
In the case of “GTATTGTGAATACTCACCCTTGGTCTTATTAACCATTTTTCGGAGTCACCTAGTGCAG”, the binding signal is reported as 8160 fluorescence intensity (a.u.).
In the case of “ATCCTGTACTTTTTGCTGATCTACATCCTCTTTCATGAACCGGAGTCACCTAGTGCAG”, the binding signal is reported as 10400 fluorescence intensity (a.u.).
For “GGTTTTCGGAGATGAGTGAGTCGTTATACCTGGTTTTTTTCGGAGTCACCTAGTGCAG”, the binding signal was 10900 fluorescence intensity (a.u.).
With “TCTCCAGTCTCCACCACCGACTTCTTCGTTTGATCTCGGGCGGAGTCACCTAGTGCAG” the binding signal was 8210 fluorescence intensity (a.u.).
“ATTCCAACTCACTCTCGTCTCCTCTTCTTCTTCTTCAACCCGGAGTCACCTAGTGCAG” was tested, and the binding signal was 9230 fluorescence intensity (a.u.).
For “CTAATTCGTACCCCACAATATATTTTTGCGTGTGTAAATGCGGAGTCACCTAGTGCAG”, the binding signal was 9300 fluorescence intensity (a.u.).
In the case of “ATAACATGCATAGCCTGGTTCGTCCTTATTGTGGTTTTCCCGGAGTCACCTAGTGCAG”, the binding signal is reported as 9780 fluorescence intensity (a.u.).
In the case of “CCGCCGCCGCCGCCGCCTCCACGCCGCCGTGCTGAGCCCACGGAGTCACCTAGTGCAG”, the binding signal is reported as 8460 fluorescence intensity (a.u.).
“AACAATAAATATTTTTTAGGCCCACGTGTCAGCTACCTTTCGGAGTCACCTAGTGCAG” was tested, and the binding signal was 10700 fluorescence intensity (a.u.).
For “TCTCTTCAAATTATTCCTTTTGCACTATATTTCAACTTGACGGAGTCACCTAGTGCAG”, the binding signal was 10800 fluorescence intensity (a.u.).
For “ATCCATCACATCACGAAACCACTTCATGTACTCTTAACATCGGAGTCACCTAGTGCAG”, the binding signal was 8080 fluorescence intensity (a.u.).
In the case of “TAGCTCCATTGTTCGATCTCATCTCCCTTAGCTAGCTACTCGGAGTCACCTAGTGCAG”, the binding signal is reported as 8130 fluorescence intensity (a.u.).
In the case of “GGTTTTTTCGGTTTTCGGTTGTCAGTTCGGTTTCTGTTTTCGGAGTCACCTAGTGCAG”, the binding signal is reported as 15400 fluorescence intensity (a.u.).
“TACCCGGCATTTATTTTCCTCACCCATTTTCTCCACTAAACGGAGTCACCTAGTGCAG” was tested, and the binding signal was 11000 fluorescence intensity (a.u.).
For “AAATTCTGTTCTTGCCTCTGACGAAGCTGTCCATATAGTACGGAGTCACCTAGTGCAG”, the binding signal was 8070 fluorescence intensity (a.u.).
“CACCATTTGCACGCTTCCCAATTGCCTCGATGAGACAGAGCGGAGTCACCTAGTGCAG” was tested, and the binding signal was 8490 fluorescence intensity (a.u.).
“GAGGCCGTTGGAGTTGTCGTCCCTCGCTCGCTTGCATCAACGGAGTCACCTAGTGCAG” was tested, and the binding signal was 9670 fluorescence intensity (a.u.).
In the case of “AATGTAGTCGAGGGTGACTTGACTTGCTCAAGGCCTTCACCGGAGTCACCTAGTGCAG”, the binding signal is reported as 8230 fluorescence intensity (a.u.).
“CACACACTCTCCGGTTTTTTTTTCCTTTTCATTTTTTTCTCGGAGTCACCTAGTGCAG” was tested, and the binding signal was 28000 fluorescence intensity (a.u.).
For “GCCTGCGCGCCTGCCTAACTTTGTTTTACTTCGATCCATCCGGAGTCACCTAGTGCAG”, the binding signal was 9370 fluorescence intensity (a.u.).
“CTCCACTGCCTGCCTCCGGCCCTATCCGAGCTGCTTTTCACGGAGTCACCTAGTGCAG” was tested, and the binding signal was 8900 fluorescence intensity (a.u.).
In the case of “CGTCTCCAGAACCGCCTCTCTCCACCACCTCTCCTCGCCTCGGAGTCACCTAGTGCAG”, the binding signal is reported as 8460 fluorescence intensity (a.u.).
With “GCCCATTGCCCCGCGTCGCTTCGTCTCCTCACCCCGCTGCCGGAGTCACCTAGTGCAG” the binding signal was 10600 fluorescence intensity (a.u.).
“GTTGCCCTTTTGCTCCTGTTGTCTTCTCCGCTCCTGTCGTCGGAGTCACCTAGTGCAG” was tested, and the binding signal was 9800 fluorescence intensity (a.u.).
In the case of “GCAGCTTCTTTTTCACCCTGGTTTTCGCTTGTACTTCACACGGAGTCACCTAGTGCAG”, the binding signal is reported as 11800 fluorescence intensity (a.u.).
For “AAAAACAAATTCTCACTGACTCTGCTTACCATCTGTTTTTCGGAGTCACCTAGTGCAG”, the binding signal was 11000 fluorescence intensity (a.u.).
With “CTCTTGTCACCATGTTCATCCTTAATTCTGCTGGTTTGGACGGAGTCACCTAGTGCAG” the binding signal was 8890 fluorescence intensity (a.u.).
For “GTGGGTACGGTCGGATTATGGGGTTGGGATTTCAATAATACGGAGTCACCTAGTGCAG”, the binding signal was 13700 fluorescence intensity (a.u.).
